Data source: PubChem BioAssay AID743121 (NCATS, 2013)
Shown is an unselected part of about 26,000 deposited reagents. 167 of them (0.63%) were called active. 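Calls are per gene from RSA p-values that are not deposited; an individual active-marked siRNA can sensitise only weakly.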 A number with no mark means an inactive call. Reagents against one gene are numbered here. Further read-outs or replicates are left out here.

- Test: 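Genes whose silencing strengthens cell killing by camptothecin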 (primary screen)
- System: MDA-MB-231 cells, a human breast cancer line
- Reagent: single siRNA against human genes, 20 nM siRNA (0.8 pmol per well)
- Time to read-out: 120 h (drug added 48 h after transfection, read 72 h later)
- Treatment: camptothecin 20 nM (about EC30) for 72 h; vehicle 0.1% DMSO in parallel plates
- Measured: 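Cell viability by ATP luminescence (CellTiter-Glo) as % of non-targeting siRNA wells, and the log2 ratio of viability without drug over viability with camptothecin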
- Scale: log2 vehicle/camptothecin viability: higher = stronger sensitisation to camptothecin; viability with camptothecin: higher = more viable cells
- Hit rule: 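Active genes have an RSA gene-level p-value below 0.001, computed from the ratios of their separate siRNAs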

no.	gene knocked down	reagent no.	log2 vehicle/camptothecin viability	viability with camptothecin (% of control)
1	HCN3	1	-0.342	73.7
2	HCN3	2	-0.268	73.7
3	HCN3	3	0.133	23.2
4	HCN3	4	0.185	38.9
5	ENPP2	1	0.028	77.1
6	ENPP2	2	0.363	77.6
7	ENPP2	3	-0.358	108
8	ENPP2	4	-0.114	88.7
9	LRCH4	1	0.403 (active)	38.5
10	LRCH4	2	-0.743 (active)	64.8
11	LRCH4	3	0.514 (active)	29.1
12	LRCH4	4	0.957 (active)	39.2
13	IL21R	1	-0.282	30.6
14	IL21R	2	0.296	64.5
15	IL21R	3	0.201	93.6
16	IL21R	4	-0.0941	93.2
17	HK3	1	-0.192	68.2
18	HK3	2	-0.26	86.9
19	HK3	3	0.151	103
20	HK3	4	0.908	22.6
21	ATP9A	1	-0.665	97.4
22	ATP9A	2	-0.174	65.8
23	ATP9A	3	1.18	23.3
24	IL6R	1	-0.138	113
25	IL6R	2	-0.0455	58.3
26	IL6R	3	-0.177	74.1
27	RASA4	1	-0.0788	100
28	RASA4	2	-0.385	48.1
29	RASA4	3	-0.0636	66.6
30	RASA4	4	-0.22	119

In a second layout: results already given
gene knocked down	reagent no.	log2 vehicle/camptothecin viability	viability with camptothecin (% of control)
ATP9A	1	-0.665	97.4
ATP9A	2	-0.174	65.8
ATP9A	3	1.18	23.3
